Results as given in PubChem BioAssay AID493014 (National Center for Advancing Translational Sciences (NCATS), 2011).
The campaign covered roughly 340,000 compounds. About 170 (0.05%) were called active. The shares of active, inactive and inconclusive entries below differ from those in the screen. Calls follow the shape of the dose curve; as a rule, active = well fitted inhibition curve with a large enough effect in the signal ratio, with a control signal flat (not every such curve was filed as active); inconclusive = small, poorly fitted or top-dose-only effect, or effect the other way, or a change in a side signal; inactive = flat fitted curve, though single readings scatter; the % refers to the signal ratio. Potencies of inconclusive entries are doubtful fits and often do not repeat.

assay: qHTS Assay to Find Inhibitors of Chronic Active B-Cell Receptor Signaling; conditions: ABC-DLBCL IkBa-CBG/CBR reporter, luminescence ratio (green luciferase fused to IkBa over red control in TMD8 lymphoma cells), 4 h; activity change, negative = inhibition: at 46.1 µM (top of the series) unless noted;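 as to activity change, negative = inhibition: plate controls were basal doxycycline-induced cells for no effect and cells given 10 µM MG132 for full effect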
In short: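 Doxycycline induced both beetle luciferases in TMD8 lymphoma cells; IKK-driven degradation limits the IkappaBalpha-fused green signal, while red luminescence normalises for cell number and nonspecific effects. Compounds tested up to 46 uM, 4 hrs.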
Potency is read from the fitted curve at half-maximal effect.

Compound	activity change, negative = inhibition	Potency
Cc1cc(C(=O)Nc2ccccc2C(=O)O)ccc1NC(=O)COc1cccc([N+](=O)[O-])c1	inconclusive: -19.9%	
Cn1c(-c2sccc2OCc2ccc(Cl)cc2Cl)n[nH]c1=S	inconclusive: 0.263%	
CCN(CC)c1ccc(/C=N/n2c(C)nc3ccccc3c2=O)cc1	inconclusive: -19.9%	
CCOc1ccccc1N(CC(=O)NC1CCCCC1)C(=O)CCCC(=O)Nc1ccccn1	inconclusive: -16.7%	
Cc1ccc(C(=O)NCC(=O)OCC(=O)c2ccccc2)s1	inconclusive: 6.56%	
CC(=O)c1sc(NC(=O)CSC(C)C(=O)Nc2cc(C)on2)nc1-c1ccccc1 (stereo not given)		inconclusive: 25.9 µM [falling, partial curve, poor fit]
CC(Sc1nc(-c2ccccc2)cc(C(F)(F)F)n1)C(=O)Nc1sc2c(c1C#N)CCC2 (stereo not given)	inactive	
CC1C(=O)C(C)C(c2cc(Cl)ccc2O)NC1c1cc(Cl)ccc1O (stereo not given)	inconclusive: 0.928%	
C[C@H](/C=C/[C@@]1(O)[C@H](C)C[C@H](O)CC1(C)C)O[C@@H]1O[C@H](CO)[C@@H](O)[C@H](O)[C@H]1O	inconclusive: 2.82%	
Cc1ccc(NC(=O)CCNC(=O)c2ccccc2Cl)cc1S(=O)(=O)N1CCOCC1	inconclusive: 4.62%	
Cc1ccc(NS(=O)(=O)c2ccc(C(=O)N3CCN(c4ccccn4)CC3)cc2)cc1		inconclusive: 1.84 µM [falling, partial curve]
Cc1cccn2c(=O)c3cc(C#N)c(=NC(=O)c4cccs4)n(CC(C)C)c3nc12	inconclusive: 20.5%	
COc1ccc(-c2cc(C(F)(F)F)n3nc(C(=O)NCCCn4ccnc4)cc3n2)cc1	inconclusive: -26.8%	
COc1ccc(CCN=Cc2ccccc2O)cc1OC	inconclusive: 17.1%	
OCC1(Cc2ccc(Cl)cc2)CCN(CCCc2ccccc2)CC1	inactive	
Nc1ccc(C(=O)N/N=C/c2cn(Cc3ccc(F)cc3)c3ccccc23)cc1		inconclusive: 7.08 µM [falling, partial curve]
CCC(=O)Nc1ccc(-c2ccc(N3CCCCC3)nn2)cc1	inconclusive: -0.411%	
CN(C)c1ccc(C2CC(c3ccccc3)=Nc3nc(-c4ccccc4)cn32)cc1 (stereo not given)		inconclusive: 29.1 µM [falling, single point]
C#CCOCCOCCOCCNc1nc(N2CCN(C(=O)Cn3cc(CCCN=C(N)N)nn3)CC2)nc(N2CCN(C(=O)[C@H]([C@@H](C)O)n3cc(CCCCN)nn3)CC2)n1	inconclusive: -4.37%	
CCCc1nnc(NC(=O)c2cccc(OC)c2)s1		inconclusive: 31.6 µM [falling, single point]
COc1cccc(NC2c3ccccc3C(=O)N2Cc2ccccc2Cl)c1 (stereo not given)	inconclusive: -19.3%	
Cc1cccc(C(=O)N(Cc2ccc(C)o2)C2CCS(=O)(=O)C2)c1 (stereo not given)	inconclusive: -2.2%	
O=C(CN1CCCCC1)NC(=O)NC1CCCC1	inconclusive: 11.4%	
Cc1cccc(N2CCN(S(=O)(=O)c3cnc[nH]3)CC2)c1C		inconclusive: 32.6 µM [falling, single point]
Cc1ccc(-n2nnnc2Sc2nc([N+](=O)[O-])nn2C)cc1		inconclusive: 29.1 µM [cytotoxic, single point]
Cc1ccc(-n2cc(-c3ccccc3)c3c(NN4CCOCC4)ncnc32)cc1	inconclusive: 5.63%	
CCCCCC(O)CCc1n[nH]c(=S)n1-c1ccccc1 (stereo not given)	inactive	

Compound	activity change, negative = inhibition	Potency
CC1=C(C)C(=O)C(N2CCOCC2)=CC1=O	inconclusive: -11.8%	
COc1ccc2c(c1OC)C(=O)N(c1ccc(C)cc1)C2	inactive	
COc1cccc(C(=O)Nc2cccc(C(=O)N3CCOCC3)c2)c1	inconclusive: 3.53%	
Cc1ccc(OCC(=O)NNC(=O)Cn2c(=O)cnc3ccccc32)cc1	inconclusive: 3.28%	
O=C(NCCC(=O)N1CCCCC1)c1ccc(Br)cc1	inconclusive: -0.858%	
Cc1ccc(NC(=O)C(C)OC(=O)c2ccc(Cl)nc2)cc1S(=O)(=O)N1CCOCC1 (stereo not given)	inactive	
COc1ccccc1-n1c(=O)c2c3c(sc2n(C)c1=O)CN(C(C)=O)CC3		inconclusive: 6.31 µM [falling, full curve, poor fit]
CCNS(=O)(=O)c1ccc(Br)c(C(=O)OC(C)C(=O)NCC2CCCCC2)c1 (stereo not given)	inconclusive: 0.905%	
O=C(Nc1cnn(Cc2c(Cl)cccc2Cl)c1)c1ccc([N+](=O)[O-])cc1	inconclusive: 0.335%	
Cc1cc(C)c(C(CC(=O)c2cccs2)C(C#N)C#N)c(C)c1 (stereo not given)		inconclusive: 18.4 µM [falling, partial curve, poor fit]
CC1CN(S(=O)(=O)c2cccc(C(=O)N(CCc3ccccc3)Cc3ccccc3)c2)CC(C)O1 (stereo not given)	inconclusive: 1.68%	
CCC(C)c1ccc(NC(=O)C/C(C)=N/NC(=O)c2cnccn2)cc1 (stereo not given)		inconclusive: 18.4 µM [falling, single point]
O=C(CC1SC(=Nc2ccccc2)N(CCCO)C1=O)Nc1ccc(Cl)cc1 (stereo not given)	inactive	
Oc1ccc2oc3c(c2c1/C=N/n1cnnc1)CCCC3	inconclusive: 10.5%	
Cc1cccc(NC(=O)c2cc(S(=O)(=O)NCc3ccc4c(c3)OCO4)ccc2F)c1C	inactive	
CN(C)CCCN1c2ccccc2Sc2ccc(C(F)(F)F)cc21		inconclusive: 18.4 µM [falling, single point]
Nc1nc(-c2ccccc2)cs1	inconclusive: -0.387%	
CCN(C(=O)C1CCCN1S(=O)(=O)c1cccc2nsnc12)c1ccccc1 (stereo not given)	inconclusive: 5.2%	
COc1cccc(CSc2nnc(-c3ccc(F)cc3)o2)c1		inconclusive: 3.66 µM [falling, full curve, poor fit]
CCOC(=O)C(CCCOc1ccc(C)cc1)C(=O)OCC	inconclusive: 0.275%	
CCNC(=S)NNC(=O)CCc1nc2cc(Cl)ccc2n(Cc2ccccc2)c1=O	inactive	
CCOC(=O)c1ccc(OCC2c3cc(OC)c(OC)cc3CCN2C(=O)c2ccc(S(=O)(=O)N3CCCC3)cc2)cc1 (stereo not given)	inactive	
COc1ccc(C2C3=C(NCCN=C3c3ccccc3)C(=O)N2c2ccccc2)c(OC)c1 (stereo not given)	inconclusive: -0.062%	
Cc1cc2[nH]c3c(c[n+](C)c4ccccc34)c2cc1C		inconclusive: 22.4 µM [rising, single point]
CN1CCN(CCOC2Cc3ccccc3Sc3ccc(Cl)cc32)CC1 (stereo not given)		inconclusive: 32.6 µM [falling, partial curve, poor fit]
O=C(c1ccncc1)N1CCN(c2ccc(F)cc2)CC1	inconclusive: -8.27%	
COc1ccc(CCNC(=O)CN(c2cccc([N+](=O)[O-])c2)S(C)(=O)=O)cc1	inconclusive: 0.0299%	

An excerpt of these results, as comma-separated lines:
Compound,"activity change, negative = inhibition",Potency
COc1cccc(CSc2nnc(-c3ccc(F)cc3)o2)c1,,"inconclusive: 3.66 µM [falling, full curve, poor fit]"
CCOC(=O)C(CCCOc1ccc(C)cc1)C(=O)OCC,inconclusive: 0.275%,
CCNC(=S)NNC(=O)CCc1nc2cc(Cl)ccc2n(Cc2ccccc2)c1=O,inactive,
CCOC(=O)c1ccc(OCC2c3cc(OC)c(OC)cc3CCN2C(=O)c2ccc(S(=O)(=O)N3CCCC3)cc2)cc1 (stereo not given),inactive,
COc1ccc(C2C3=C(NCCN=C3c3ccccc3)C(=O)N2c2ccccc2)c(OC)c1 (stereo not given),inconclusive: -0.062%,
Cc1cc2[nH]c3c(c[n+](C)c4ccccc34)c2cc1C,,"inconclusive: 22.4 µM [rising, single point]"
CN1CCN(CCOC2Cc3ccccc3Sc3ccc(Cl)cc32)CC1 (stereo not given),,"inconclusive: 32.6 µM [falling, partial curve, poor fit]"

Additional results follow:

Compound	activity change, negative = inhibition	Potency
COc1cccc2sc(N)nc12	inconclusive: -11.1%	
Cc1cccc(C(=O)O/N=C(\N)c2ccccn2)c1		inconclusive: 4.47 µM [rising, full curve, poor fit]
Cc1nc2scc(-c3ccccc3)c2c(=O)n1N	inactive	
C=CCN(CC=C)C(=S)Nc1ccc2nsnc2c1	inconclusive: -0.529%	
CCN1CCCC1CN(Cc1cc2ccc(C)cc2[nH]c1=O)C(=S)Nc1ccc(OC)cc1OC (stereo not given)	inconclusive: 7.88%	
Cc1ccccc1CC(=O)N1CCN(C(=O)C2CCCO2)CC1 (stereo not given)	inconclusive: 6.78%	
NS(=O)(=O)c1ccc(NC(=O)c2cccc3ccccc23)cc1	inconclusive: -24.1%	
Cc1cnc(C(=O)Nc2nnc(C)s2)cn1	inactive	
COc1ccc(N=c2oc3c(OC)cccc3cc2C(=O)NCc2ccco2)cc1OC	inconclusive: -16.6%	
CCN(CC)CCNC(=O)c1cc(-c2ccc(Br)s2)nc2ccccc12	inactive	
C/C(=N/NC(=O)c1ccn(C)n1)c1ccncc1		inconclusive: 28.2 µM [falling, single point]
COC(=O)C(=Nc1ccccc1)/C(C(=O)C(=O)N(C)c1ccccc1)=C(\O)c1ccc(Cl)cc1		inconclusive: 25.1 µM [falling, partial curve]
CC(=O)Nc1cccc(-c2nc3ccc(NC(C)=O)cc3[nH]2)c1		inconclusive: 35.5 µM [falling, single point]
COc1ccc(-c2nn(-c3ccccc3)cc2/C=N/NC(=O)c2cccc(S(=O)(=O)Nc3ccccc3OC)c2)cc1	inconclusive: 19.5%	
N#C/C(=C\c1cccc(Br)c1)C(=O)N1CCCCC1	inactive	
O=C(CCCOc1ccc(Cl)cc1Cl)NCc1ccncc1		inconclusive: 1.41 µM [rising, full curve]
CCn1c(COC(=O)CNC(=O)c2ccccc2)nc2cc(S(=O)(=O)N(C)C)ccc21	inconclusive: 18.3%	
O=C(CSc1nnc(Cc2ccccc2)o1)N1CCCc2ccccc21	inactive	
O=C(c1ccc(COCC(F)(F)F)cc1)N1CCN(c2ccccn2)CC1	inconclusive: -16.6%	
CCCc1cc(=O)oc2cc(OCC(=O)NCCCn3ccnc3)c(Cl)cc12	inconclusive: 5.96%	
C=CCn1c(=O)c(C#N)cc2c(=O)n3ccccc3nc21	inconclusive: -4.42%	
Cc1ccccc1-c1ncc(CN2CCC(CO)(CCCc3ccccc3)CC2)cn1	inactive	
CCOc1ccc(NC2c3ccccc3C(=O)N2c2ccc(Cl)cn2)cc1 (stereo not given)	inconclusive: 2.92%	
O=C(Nc1ccc2c(c1)OCCO2)C1CCN(C(=O)c2ccc(F)cc2)CC1	inconclusive: -1.72%	
COc1ccc(Nc2nc3cc(C)ccc3cc2C#N)c(OC)c1	inactive	
CCCCn1cnc2c(sc3nc4c(cc32)CSC(C)(C)C4)c1=O	inconclusive: 7.08%	
